Laboratory results published in article PMC5675994.
Results are given in words; binding and its absence hold for the method and conditions named. Binding seen in cells or lysates may run through a third protein. These calls come from enrichment with a bait or labelling near it, and not all partners need be listed. For some of these results: Tags and fused reporters may be left off the sequences shown.

By UniProt entry, the sequences of proteins in these tests, tags left out. Where a name states a change or a piece, a line headed by the entry shows the natural chain unless it says otherwise.
UniProt Q07540: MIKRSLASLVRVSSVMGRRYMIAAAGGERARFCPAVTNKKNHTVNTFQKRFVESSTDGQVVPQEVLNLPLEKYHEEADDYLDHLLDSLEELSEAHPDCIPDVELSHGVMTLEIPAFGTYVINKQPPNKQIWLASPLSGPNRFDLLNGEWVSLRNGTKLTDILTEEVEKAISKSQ

T1: Nfs1-His6 (S. cerevisiae) (UniProt P25374)
T1 sequence: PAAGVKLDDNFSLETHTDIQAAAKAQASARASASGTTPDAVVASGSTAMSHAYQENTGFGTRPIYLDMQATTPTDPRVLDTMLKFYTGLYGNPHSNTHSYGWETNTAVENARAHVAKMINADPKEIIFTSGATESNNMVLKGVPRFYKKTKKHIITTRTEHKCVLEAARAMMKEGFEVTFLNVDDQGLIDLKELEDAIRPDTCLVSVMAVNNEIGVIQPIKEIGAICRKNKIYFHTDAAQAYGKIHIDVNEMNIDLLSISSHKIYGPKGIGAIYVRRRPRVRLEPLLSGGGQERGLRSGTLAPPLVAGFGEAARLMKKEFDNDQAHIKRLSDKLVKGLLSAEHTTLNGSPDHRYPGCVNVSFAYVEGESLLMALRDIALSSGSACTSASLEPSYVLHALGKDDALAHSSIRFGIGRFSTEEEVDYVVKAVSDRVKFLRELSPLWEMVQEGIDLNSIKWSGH

B1: Uncharacterized protein YHR097C (protein, UniProt P38809 1-366)
chain: MNQTGRTIGGPQNGVNTVINPFRVSPSEDRVSSRDETPRNYNNPFLNEDDTRRAHNSSVSNSRQERLPSYEEAAGTPKQQAPYPKEKKRSSGSNSHQHNHHHHRRTSHGHRDKDKQKSKSRTKVKPPKNVDTIDKMDVTGLFGGSFHHDGPFDACTPQRNKNNKVAPVLAFPADGPNNTVGGRTSKKSTLDEVFGRETVDDDSETLNQLQDRAYLFNKANSSTTTLDAIKPNSKNITQFDSKMKTELVHGPITMGLGSTTFLDGAPASSAAIEQDVINHAQESRRKNSIARKKSLPSRRHLQVNNNNLKLVKTHSGHLEQKDVDDNRTSVPVTATQGSGHEDVVKKENTGNKLLRRVKSLKTSKKH
B2: Factor arrest protein 8 (protein, UniProt Q05040 1-523)
chain: MAINQAHVHPHYTLPGVMHYLQTEFTKNERDRITWELERSEMKARIAELEGENRDLKHQLNQIQSKAVSPEGEKEEKHVPDSLLQSKLAVQENVKEIIYLLKGPNTVNQLESLNSREAGSELHDLEKLNVNTPKEEGSAKTNGMDILNNALLDTKPNPKQGPSESPSPTKVKSLFSTANKRENNETISKIHSELSKVDIISSYGDCMALYDADTKSLEIHQVDANLNSKLLKKISLGQDSDIMKFFWVSTSKLLVIEKSFHLKLFSISSASLISDVDLLQDSEQPFSSSDIINIDFKNKWLLIASKNKSQIRIWELDNIEAPEDVPINIKETYEITHDNDDDDSNDSTNILDCILGITEKSLILLSSNPYQLTIYDFEGKLLQKIDLKIDTILSGKPEEEGYHLFLDRKTSKLLIQLSNERLLVYSFDKKKVVLKEQLTPSSTLPIQLDLNDSIITVSYSNGDFEFRNLENLKPSIDEFVVADINFSERKEPVVFSSNLIVDSTPVLITVNKNNEVLLHKIKI
B3: Acyl carrier protein, mitochondrial (protein, UniProt P32463 37-125)
chain: SANLSKDQVSQRVIDVIKAFDKNSPNIANKQISSDTQFHKDLGLDSLDTVELLVAIEEEFDIEIPDKVADELRSVGETVDYIASNPDAN
B4: Probable serine/threonine-protein kinase RTK1 (protein, UniProt Q12100 1-620)
chain: MVKETPLHSSSSTSLSSLFRPTKLKNLSAKIFNGGGNQSYSKTDDVSRSSSRSSKKNTDSDQEDQIKYNKPNDRRSTIGKSPQGNGALSKESHVVASSTLTGISPTSAKKAPIDYSPSRPLPNNHNPVRTGHTVPHLPHSIHNPINYIHQGSKDAFHHPHPVRSTAHSNISTVSSAKSDTPSSNLSYQAHMHPVEILQKQIEDKHFMDSQASTPGSVELQHNSSSGSDDTSSRKKKSLRLTRFFKKIHNDYHDNHHHHHHHNRGSTPTKPKLNLNTNENIVESNGKALYETDNPVELLEKYGIPGRKLGEGASGSVSVVERTDGKLFACKMFRKPHLNNEGTNQSQLANYSKKVTTEFCIGSTLHHENIVETLDMLTEGDTYLLVMEYAPYDFFNLVMSNLMTQDEVNCYFKQLCHGVNYLHSMGLAHRDLKLDNCVVTKDGILKLIDFGSAVVFQYPYEDTIVKSHGIVGSDPYLAPELLKQTSYDPRVADVWSIAIIFYCMVLKRFPWKAPKKSFNSFRLFTEEPEDEDDIVRGPNKILRLLPRHSRTIIGRMLALEPKQRVLMNDVVKDDWLVSVPSCEVDPTSGDLVEKPKNHKHHLVTEEELNELTKQHGNKDSN
B5: Intrastrand cross-link recognition protein (protein, UniProt P33417 1-597)
chain: MNTGISPKQDDASNSNLLNIGQDHSLQYQGLEHNDSQYRDASHQTPHQYLNQFQAQPQQQQQQQQQQQQQQQQAPYQGHFQQSPQQQQQNVYYPLPPQSLTQPTSQSQQQQQQQQQQQYANSNSNSNNNVNVNALPQDFGYMQQTGSGQNYPTINQQQFSEFYNSFLSHLTQKQTNPSVTGTGASSNNNSNNNNVSSGNNSTSSNPAQLAASQLNPATAAAAAANNAAGPASYLSQLPQVQRYYPNNMNALSSLLDPSSAGNAAGNANTATHPGLLPPNLQPQLTHHQQQMQQQLQLQQQQQLQQQQQLQQQHQLQQQQQLQQQHHHLQQQQQQQQHPVVKKLSSTQSRIERRKQLKKQGPKRPSSAYFLFSMSIRNELLQQFPEAKVPELSKLASARWKELTDDQKKPFYEEFRTNWEKYRVVRDAYEKTLPPKRPSGPFIQFTQEIRPTVVKENPDKGLIEITKIIGERWRELDPAKKAEYTETYKKRLKEWESCYPDENDPNGNPTGHSHKAMNMNLNMDTKIMENQDSIEHITANAIDSVTGSNSNSTNPNTPVSPPISLQQQPLQQQQQQQQQQQHMLLADPTTNGSIIKNE
B6: Cap-associated protein CAF20 (protein, UniProt P12962 1-161)
chain: MIKYTIDELFQLKPSLTLEVNFDAVEFRAIIEKVKQLQHLKEEEFNSHHVGHFGRRRSSHHHGRPKIKHNKPKVTTDSDGWCTFEAKKKGSGEDDEEETETTPTSTVPVATIAQETLKVKPNNKNISSNRPADTRDIVADKPILGFNAFAALESEDEDDEA
B7: Alcohol dehydrogenase 3, mitochondrial (protein, UniProt P07246 25-375)
chain: QSTAAIPKTQKGVIFYENKGKLHYKDIPVPEPKPNEILINVKYSGVCHTDLHAWHGDWPLPVKLPLVGGHEGAGVVVKLGSNVKGWKVGDLAGIKWLNGSCMTCEFCESGHESNCPDADLSGYTHDGSFQQFATADAIQAAKIQQGTDLAEVAPILCAGVTVYKALKEADLKAGDWVAISGAAGGLGSLAVQYATAMGYRVLGIDAGEEKEKLFKKLGGEVFIDFTKTKNMVSDIQEATKGGPHGVINVSVSEAAISLSTEYVRPCGTVVLVGLPANAYVKSEVFSHVVKSINIKGSYVGNRADTREALDFFSRGLIKSPIKIVGLSELPKVYDLMEKGKILGRYVVDTSK
B8: Iron sulfur cluster assembly protein 1, mitochondrial (protein, UniProt Q03020 28-165)
chain: SSITKRLYHPKVIEHYTHPRNVGSLDKKLPNVGTGLVGAPACGDVMRLQIKVNDSTGVIEDVKFKTFGCGSAIASSSYMTELVQGMTLDDAAKIKNTEIAKELSLPPVKLHCSMLAEDAIKAAIKDYKSKRNTPTMLS
B9: Nicotinamidase (protein, UniProt P53184 1-216)
chain: MKTLIVVDMQNDFISPLGSLTVPKGEELINPISDLMQDADRDWHRIVVTRDWHPSRHISFAKNHKDKEPYSTYTYHSPRPGDDSTQEGILWPVHCVKNTWGSQLVDQIMDQVVTKHIKIVDKGFLTDREYYSAFHDIWNFHKTDMNKYLEKHHTDEVYIVGVALEYCVKATAISAAELGYKTTVLLDYTRPISDDPEVINKVKEELKAHNINVVDK
B10: Peroxisomal acyl-coenzyme A thioester hydrolase 1 (protein, UniProt P41903 1-349)
chain: MSASKMAMSNLEKILELVPLSPTSFVTKYLPAAPVGSKGTFGGTLVSQSLLASLHTVPLNFFPTSLHSYFIKGGDPRTKITYHVQNLRNGRNFIHKQVSAYQHDKLIFTSMILFAVQRSKEHDSLQHWETIPGLQGKQPDPHRYEEATSLFQKEVLDPQKLSRYASLSDRFQDATSMSKYVDAFQYGVMEYQFPKDMFYSARHTDELDYFVKVRPPITTVEHAGDESSLHKHHPYRIPKSITPENDARYNYVAFAYLSDSYLLLTIPYFHNLPLYCHSFSVSLDHTIYFHQLPHVNNWIYLKISNPRSHWDKHLVQGKYFDTQSGRIMASVSQEGYVVYGSERDIRAKF
B11: Repressible alkaline phosphatase;Soluble alkaline phosphatase (protein, UniProt P11491 1-566)
chain: MMTHTLPSEQTRLVPGSDSSSRPKKRRISKRSKIIVSTVVCIGLLLVLVQLAFPSSFALRSASHKKKNVIFFVTDGMGPASLSMARSFNQHVNDLPIDDILTLDEHFIGSSRTRSSDSLVTDSAAGATAFACALKSYNGAIGVDPHHRPCGTVLEAAKLAGYLTGLVVTTRITDATPASFSSHVDYRWQEDLIATHQLGEYPLGRVVDLLMGGGRSHFYPQGEKASPYGHHGARKDGRDLIDEAQSNGWQYVGDRKNFDSLLKSHGENVTLPFLGLFADNDIPFEIDRDEKEYPSLKEQVKVALGALEKASNEDKDSNGFFLMVEGSRIDHAGHQNDPASQVREVLAFDEAFQYVLEFAENSDTETVLVSTSDHETGGLVTSRQVTASYPQYVWYPQVLANATHSGEFLKRKLVDFVHEHKGASSKIENFIKHEILEKDLGIYDYTDSDLETLIHLDDNANAIQDKLNDMVSFRAQIGWTTHGHSAVDVNIYAYANKKATWSYVLNNLQGNHENTEVGQFLENFLELNLNEVTDLIRDTKHTSDFDATEIASEVQHYDEYYHELTN

target: Yfh1-His6 (S. cerevisiae) (UniProt Q07540); assay: affinity purification with mass spectrometry; Yfh1-His6 held on Ni-NTA superflow agarose from French-press lysate (108,000xg supernatant) of isolated mitochondria of the Yfh1-His6 yeast strain; 50 mM TrisCl pH 7.5, 80 mM KCl, 10% glycerol, wash 40 mM imidazole with 0.1% Triton X-100, elution 400 mM imidazole; eluate analysed by LC-MS/MS

| Binder | binding |
| --- | --- |
| B1 | binds |
| B2 | binds |
| B3 | binds |
| B4 | binds |
| B5 | binds |
| B6 | binds |
| B7 | binds |
| B8 | binds |
| B9 | binds |
| B10 | binds |
| B11 | binds |

target: T1, Nfs1-His6 (S. cerevisiae); assay: affinity purification with mass spectrometry; Nfs1-His6 held on Ni-NTA superflow agarose from sonicated, cleared lysate of isolated mitochondria of the Gal-Nfs1-His6 yeast strain; 50 mM TrisCl pH 7.5, 80 mM KCl, 10% glycerol, wash 40 mM imidazole, elution 400 mM imidazole; eluate analysed by LC-MS/MS

| Binder | binding |
| --- | --- |
| B1 | binds |
| B2 | binds |
| B3 | binds |
| B4 | binds |
| B5 | binds |
| B6 | binds |
| B7 | binds |
| B8 | binds |
| B9 | binds |
| B10 | binds |
| B11 | binds |
